Reference: publication PMC9881131
These are yes or no findings as the source states them, for the method shown. Binding seen in cells or lysates may run through a third protein. Binding can be weak; no strength is given. Tags and fused reporters may be left off the sequences shown.

Each substance was assayed against T1, Myc-TRAIP wild type (UniProt Q9BWF2) (assay: co-IP; 293T cells co-transfected with Myc-TRAIP and GFP-ZNF212 WT, deletion mutants or NLS-fragments; 24 h; lysates with benzonase; IP with anti-Myc bead, immunoblot).
T1 sequence: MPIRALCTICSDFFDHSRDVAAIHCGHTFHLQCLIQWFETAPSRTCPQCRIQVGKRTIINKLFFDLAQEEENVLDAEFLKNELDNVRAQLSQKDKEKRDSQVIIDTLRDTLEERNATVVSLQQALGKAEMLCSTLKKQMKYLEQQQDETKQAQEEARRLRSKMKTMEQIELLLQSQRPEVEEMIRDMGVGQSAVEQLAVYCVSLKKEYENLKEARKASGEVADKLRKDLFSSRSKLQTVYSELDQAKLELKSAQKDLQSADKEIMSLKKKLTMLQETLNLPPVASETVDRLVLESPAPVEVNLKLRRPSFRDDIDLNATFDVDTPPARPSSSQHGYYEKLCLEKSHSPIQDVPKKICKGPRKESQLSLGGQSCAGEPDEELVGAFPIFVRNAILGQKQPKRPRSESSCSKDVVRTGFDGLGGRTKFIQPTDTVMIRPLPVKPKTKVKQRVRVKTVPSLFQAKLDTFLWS
For “GFP-ZNF212-ΔC (human) (domain or fragment)”, the binding was “binds”.
With “GFP-ZNF212-ΔM (human) (domain or fragment)” the binding was “binds”.
For “GFP-ZNF212-ΔN (human) (domain or fragment)”, the binding was “binds”.
